Experiment: Essential fatty acid parameters in plasma and RBC, AAMI pilot study (Example 1)
Type: in vivo, human
Conditions: for AA LS mean, 1 g versus 4 g / AA LS mean, 2 g versus 4 g / DGLA LS mean, 1 g versus 4 g / DGLA LS mean, 2 g versus 4 g / DHA LS mean, 1 g versus 4 g / DHA LS mean, 2 g versus 4 g / DPAn-3 LS mean, 1 g versus 4 g / DPAn-3 LS mean, 2 g versus 4 g / EPA/AA LS mean, 1 g versus 4 g / EPA/AA LS mean, 2 g versus 4 g: ANCOVA

SMILES: CC/C=C\C/C=C\C/C=C\C/C=C\C/C=C\CCCC(=O)OCC [AMR101, all-cis eicosa-5,8,11,14,17-pentaenoic acid ethyl ester]
- AA LS mean, 1 g versus 4 g (RBC): 8.4 µg/g
- AA LS mean, 2 g versus 4 g (RBC): 9.8 µg/g
- DGLA LS mean, 1 g versus 4 g (RBC): 1.5 µg/g
- DGLA LS mean, 2 g versus 4 g (RBC): 1.5 µg/g
- DHA LS mean, 1 g versus 4 g (RBC): 1.0 µg/g
- DHA LS mean, 2 g versus 4 g (RBC): 1.0 µg/g
- DPAn-3 LS mean, 1 g versus 4 g (RBC): -6.2 µg/g
- DPAn-3 LS mean, 2 g versus 4 g (RBC): -2.5 µg/g
- EPA/AA LS mean, 1 g versus 4 g (RBC): −0.18
- EPA/AA LS mean, 2 g versus 4 g (RBC): −0.11
- AA mean change from baseline (RBC, Day 14, 1 g daily): −8.1 (21.95) μg/g
- DGLA mean change from baseline (RBC, Day 14, 1 g daily): −2.7 (3.82) μg/g
- DHA mean change from baseline (RBC, Day 14, 1 g daily): −4.6 (9.76) μg/g
- DPAn-3 mean change from baseline (RBC, Day 14, 1 g daily): 0.9 (5.03) μg/g
- EPA/AA mean change from baseline (RBC, Day 14, 1 g daily): 0.1 (0.04)
- AA mean change from baseline (RBC, Day 14, 2 g daily): −3.1 (25.84) μg/g
- DGLA mean change from baseline (RBC, Day 14, 2 g daily): −2.6 (3.54) μg/g
- DHA mean change from baseline (RBC, Day 14, 2 g daily): −2.0 (9.46) μg/g
- DPAn-3 mean change from baseline (RBC, Day 14, 2 g daily): 5.6 (6.28) μg/g
- EPA/AA mean change from baseline (RBC, Day 14, 2 g daily): 0.2 (0.04)
- AA mean change from baseline (RBC, Day 14, 4 g daily): −15.7 (26.76) μg/g
- DGLA mean change from baseline (RBC, Day 14, 4 g daily): −5.3 (4.10) μg/g
- DHA mean change from baseline (RBC, Day 14, 4 g daily): −6.9 (9.13) μg/g
- DPAn-3 mean change from baseline (RBC, Day 14, 4 g daily): 5.4 (5.38) μg/g
- EPA/AA mean change from baseline (RBC, Day 14, 4 g daily): 0.3 (0.07)
- AA mean change from baseline (RBC, Day 28, 1 g daily): −17.0 (20.69) μg/g
- DGLA mean change from baseline (RBC, Day 28, 1 g daily): −3.8 (3.31) μg/g
- DHA mean change from baseline (RBC, Day 28, 1 g daily): −6.4 (11.57) μg/g
- DPAn-3 mean change from baseline (RBC, Day 28, 1 g daily): 3.3 (5.42) μg/g
- EPA/AA mean change from baseline (RBC, Day 28, 1 g daily): 0.1 (0.05)
- AA mean change from baseline (RBC, Day 28, 2 g daily): −14.1 (26.89) μg/g
- DGLA mean change from baseline (RBC, Day 28, 2 g daily): −4.5 (3.58) μg/g
- DHA mean change from baseline (RBC, Day 28, 2 g daily): −6.2 (9.34) μg/g
- DPAn-3 mean change from baseline (RBC, Day 28, 2 g daily): 9.4 (6.74) μg/g
- EPA/AA mean change from baseline (RBC, Day 28, 2 g daily): 0.02 (0.06)
- AA mean change from baseline (RBC, Day 28, 4 g daily): −22.8 (29.56) μg/g
- DGLA mean change from baseline (RBC, Day 28, 4 g daily): −7.1 (4.63) μg/g
- DHA mean change from baseline (RBC, Day 28, 4 g daily): −8.7 (11.63) μg/g
- DPAn-3 mean change from baseline (RBC, Day 28, 4 g daily): 12.4 (6.98) μg/g
- EPA/AA mean change from baseline (RBC, Day 28, 4 g daily): 0.4 (0.11)
- AA mean change from baseline (RBC, Day 42, 1 g daily): −14.2 (27.69) μg/g
- DGLA mean change from baseline (RBC, Day 42, 1 g daily): −3.5 (4.51) μg/g
- DHA mean change from baseline (RBC, Day 42, 1 g daily): −7.0 (12.20) μg/g
- DPAn-3 mean change from baseline (RBC, Day 42, 1 g daily): 6.5 (6.19) μg/g
- EPA/AA mean change from baseline (RBC, Day 42, 1 g daily): 0.1 (0.06)
- AA mean change from baseline (RBC, Day 42, 2 g daily): −18.8 (25.62) μg/g
- DGLA mean change from baseline (RBC, Day 42, 2 g daily): −5.3 (3.65) μg/g
- DHA mean change from baseline (RBC, Day 42, 2 g daily): −6.3 (9.42) μg/g
- DPAn-3 mean change from baseline (RBC, Day 42, 2 g daily): 13.2 (7.23) μg/g
- EPA/AA mean change from baseline (RBC, Day 42, 2 g daily): 0.3 (0.06)
- AA mean change from baseline (RBC, Day 42, 4 g daily): −34.4 (31.44) μg/g
- DGLA mean change from baseline (RBC, Day 42, 4 g daily): −8.0 (4.98) μg/g
- DHA mean change from baseline (RBC, Day 42, 4 g daily): −13.8 (13.76) μg/g
- DPAn-3 mean change from baseline (RBC, Day 42, 4 g daily): 16.2 (10.07) μg/g
- EPA/AA mean change from baseline (RBC, Day 42, 4 g daily): 0.4 (0.14)
- AA LS mean, 1 g versus 4 g (plasma): 4.2 µg/g
- AA LS mean, 2 g versus 4 g (plasma): 15.6 µg/g
- DGLA LS mean, 1 g versus 4 g (plasma): 3.7 µg/g
- DGLA LS mean, 2 g versus 4 g (plasma): 2.5 µg/g
- DHA LS mean, 1 g versus 4 g (plasma): -0.8 µg/g
- DHA LS mean, 2 g versus 4 g (plasma): 1.5 µg/g
- DPAn-3 LS mean, 1 g versus 4 g (plasma): -15.1 µg/g
- DPAn-3 LS mean, 2 g versus 4 g (plasma): -9.5 µg/g
- EPA/AA LS mean, 1 g versus 4 g (plasma): −0.66
- EPA/AA LS mean, 2 g versus 4 g (plasma): −0.41
- AA mean change from baseline (plasma, Day 14, 1 g daily): −9.7 (22.20) μg/g
- DGLA mean change from baseline (plasma, Day 14, 1 g daily): −10.4 (10.90) μg/g
- DHA mean change from baseline (plasma, Day 14, 1 g daily): −6.4 (13.30) μg/g
- DPAn-3 mean change from baseline (plasma, Day 14, 1 g daily): 7.5 (5.11) μg/g
- EPA/AA mean change from baseline (plasma, Day 14, 1 g daily): 0.3 (0.4)
- AA mean change from baseline (plasma, Day 14, 2 g daily): −13.9 (22.13) μg/g
- DGLA mean change from baseline (plasma, Day 14, 2 g daily): −14.1 (6.88) μg/g
- DHA mean change from baseline (plasma, Day 14, 2 g daily): −5.4 (14.29) μg/g
- DPAn-3 mean change from baseline (plasma, Day 14, 2 g daily): 17.4 (7.49) μg/g
- EPA/AA mean change from baseline (plasma, Day 14, 2 g daily): 0.6 (0.23)
- AA mean change from baseline (plasma, Day 14, 4 g daily): −27.2 (28.39) μg/g
- DGLA mean change from baseline (plasma, Day 14, 4 g daily): −22.9 (9.00) μg/g
- DHA mean change from baseline (plasma, Day 14, 4 g daily): −10.3 (13.35) μg/g
- DPAn-3 mean change from baseline (plasma, Day 14, 4 g daily): 24.5 (11.28) μg/g
- EPA/AA mean change from baseline (plasma, Day 14, 4 g daily): 1.1 (0.28)
- AA mean change from baseline (plasma, Day 28, 1 g daily): −11.3 (28.13) μg/g
- DGLA mean change from baseline (plasma, Day 28, 1 g daily): −10.6 (10.23) μg/g
- DHA mean change from baseline (plasma, Day 28, 1 g daily): −6.6 (15.53) μg/g
- DPAn-3 mean change from baseline (plasma, Day 28, 1 g daily): 8.9 (5.62) μg/g
- EPA/AA mean change from baseline (plasma, Day 28, 1 g daily): 0.3 (0.20)
- AA mean change from baseline (plasma, Day 28, 2 g daily): 21.6 (28.32) μg/g
- DGLA mean change from baseline (plasma, Day 28, 2 g daily): −16.2 (9.88) μg/g
- DHA mean change from baseline (plasma, Day 28, 2 g daily): −8.1 (15.82) μg/g
- DPAn-3 mean change from baseline (plasma, Day 28, 2 g daily): 19.4 (8.48) μg/g
- EPA/AA mean change from baseline (plasma, Day 28, 2 g daily): 0.8 (0.35)
- AA mean change from baseline (plasma, Day 28, 4 g daily): −43.7 (32.24) μg/g
- DGLA mean change from baseline (plasma, Day 28, 4 g daily): −24.2 (10.73) μg/g
- DHA mean change from baseline (plasma, Day 28, 4 g daily): −13.5 (14.10) μg/g
- DPAn-3 mean change from baseline (plasma, Day 28, 4 g daily): 29.7 (13.23) μg/g
- EPA/AA mean change from baseline (plasma, Day 28, 4 g daily): 1.3 (0.42)
- AA mean change from baseline (plasma, Day 42, 1 g daily): −8.7 (31.35) μg/g
- DGLA mean change from baseline (plasma, Day 42, 1 g daily): −9.4 (9.41) μg/g
- DHA mean change from baseline (plasma, Day 42, 1 g daily): −5.4 (18.17) μg/g
- DPAn-3 mean change from baseline (plasma, Day 42, 1 g daily): 11.3 (6.61) μg/g
- EPA/AA mean change from baseline (plasma, Day 42, 1 g daily): 0.3 (0.24)
- AA mean change from baseline (plasma, Day 42, 2 g daily): −27.3 (26.76) μg/g
- DGLA mean change from baseline (plasma, Day 42, 2 g daily): −17.3 (9.92) μg/g
- DHA mean change from baseline (plasma, Day 42, 2 g daily): −6.0 (16.69) μg/g
- DPAn-3 mean change from baseline (plasma, Day 42, 2 g daily): 19.3 (8.63) μg/g
- EPA/AA mean change from baseline (plasma, Day 42, 2 g daily): 0.7 (0.29)
- AA mean change from baseline (plasma, Day 42, 4 g daily): −48.3 (22.20) μg/g
- DGLA mean change from baseline (plasma, Day 42, 4 g daily): −22.5 (10.87) μg/g
- DHA mean change from baseline (plasma, Day 42, 4 g daily): −13.8 (15.31) μg/g
- DPAn-3 mean change from baseline (plasma, Day 42, 4 g daily): 32.0 (16.01) μg/g
- EPA/AA mean change from baseline (plasma, Day 42, 4 g daily): 1.3 (0.45)
